PubChem BioAssay AID1671195 | Yale University | 2021
Assay: 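Knockdowns that increase or decrease uptake of fluorescent LDL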 (primary screen). Cells: human Huh7 hepatoma cells. Knock-down reagent: siRNA pool against human genes, 18 nM. Timing: about 2 to 2.5 days of knockdown, then 8 h LDL uptake. Challenge: DiI-labelled LDL at 30 µg/ml for 8 h, in lipoprotein-deficient serum medium. Detection: 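Fluorescent LDL signal imaged in cells, scaled to the plate median, robust z-score for each replicate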. Direction: robust z-score: higher = more LDL uptake after knockdown. Rule for the call: 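Active when two or more replicates show a robust z-score above 2 or below -2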.
The whole screen tested about 22,000 reagents; below is a random part of them. About 1,510 of them (6.9%) were called active. 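Active includes knockdowns raising or lowering LDL uptake; positive z-scores mean more uptake, negative mean less.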 Unmarked entries are inactive.

| gene | robust z-score, replicate 1 | robust z-score, replicate 2 | robust z-score, replicate 3 |
| --- | --- | --- | --- |
| ATE1 | -1.23 | -1.44 | -1.35 |
| POU2F1 | 1.94 (active) | 1.83 | 2.01 |
| TOMM22 | 0.628 | 0.256 | 0.423 |
| MATN4 | -0.579 | -0.0056 | -0.228 |
| TUSC1 | -0.677 | -0.637 | -0.57 |
| ARPP19 | 3.83 (active) | 2.96 | 1.49 |
| TNFSF18 | -1.26 | 0.243 | -0.438 |
| HAO1 | 0.777 | 0.713 | 1.14 |
| OPA3 | 1.29 | 0.612 | 1.29 |
| KCNIP1 | -1.46 | -1.6 | -1.15 |
| AMZ2 | -0.17 | -0.28 | -0.698 |
| SUZ12P1 | 0.705 | 0.379 | 0.483 |
| LINC02903 | 0.118 | 0.531 | -0.557 |
| SPOCK3 | -0.464 | 0.667 | -0.31 |
| FSCN3 | -1.07 | -1.86 | -3.04 |
| PPP1R17 | 1.37 | 0.879 | 0.461 |
| MAP7D3 | -1.5 | -1.21 | -1.58 |
| SERPINA7 | 1.33 (active) | 4.65 | 2.79 |
| MRPS16 | 0.0176 | -0.432 | -2.73 |
| TRAK1 | -0.977 | -1.11 | -1.01 |
| LY6E | -0.455 | -1.4 | -0.147 |
| ASMT | 1.3 | 2.17 | 1.07 |
| KCNN2 | -1.31 | -1.29 | -1.1 |
| CLGN | -0.411 | 0.00505 | -0.0178 |
| SLC25A14 | 0.403 | 0.629 | 0.596 |
| TERB1 | -0.808 | -0.951 | -0.796 |
| H3C3 | 1.73 | -0.246 | 0.562 |
| LOC441088 (retired record) | 0.417 | 0.0508 | 0.146 |
| LCE1B | -0.872 | -1.29 | -0.923 |
| CD80 | 0.108 | -1.31 | -0.104 |
| B3GALT6 | -0.577 | 0.093 | -0.606 |
| ATP1A3 | 0.0529 | 0.23 | -0.0374 |
| ZFP37 | 0.733 | 0.354 | 0.986 |
| THNSL1 | -0.967 | -0.719 | -0.82 |

Ordered by “robust z-score, replicate 1” (descending): some entries from above.
| gene | robust z-score, replicate 1 | robust z-score, replicate 2 | robust z-score, replicate 3 |
| --- | --- | --- | --- |
| PPP1R17 | 1.37 | 0.879 | 0.461 |
| SERPINA7 | 1.33 (active) | 4.65 | 2.79 |
| SUZ12P1 | 0.705 | 0.379 | 0.483 |
| LINC02903 | 0.118 | 0.531 | -0.557 |
| MRPS16 | 0.0176 | -0.432 | -2.73 |
| AMZ2 | -0.17 | -0.28 | -0.698 |
| SPOCK3 | -0.464 | 0.667 | -0.31 |
| TRAK1 | -0.977 | -1.11 | -1.01 |
| FSCN3 | -1.07 | -1.86 | -3.04 |
| MAP7D3 | -1.5 | -1.21 | -1.58 |

The list goes on:
| gene | robust z-score, replicate 1 | robust z-score, replicate 2 | robust z-score, replicate 3 |
| --- | --- | --- | --- |
| LOC441827 (retired record) | -1.56 | -1.16 | -0.92 |
| NEUROD1 | 0.445 | 0.322 | 0.734 |
| CARD10 | 0.0904 | -0.466 | -0.823 |
| LOC126772 (retired record) | 0.453 | 2.55 | 1.04 |
| PHACTR2 | -0.0828 | 1.35 | 0.0904 |
| ABTB3 | -0.00629 | -0.542 | -0.904 |
| NAT8B | 0.713 | -0.00618 | 0.39 |
| AGR3 | -1.39 | -1.86 | -1.15 |
| RORC | 1.71 | 0.869 | 1.28 |
| CLEC19A | -1.34 | -0.306 | -0.237 |
| TNFSF4 | 0.13 | -0.3 | 0.199 |
| LOC440196 (retired record) | 1.16 | 0.694 | 0.851 |
| VKORC1 | -0.0465 | -0.261 | -0.743 |
| CHRNA10 | 1.48 | 1.49 | 1.61 |
| LOC388966 (retired record) | 0.293 | 0.473 | -0.0429 |
| NAA30 | 1.07 (active) | 2.05 | 2.28 |
| FTMT | -1.64 | -1.34 | -0.694 |
| LOC401123 (retired record) | -0.172 | -0.776 | -0.00443 |
| LOC389239 (retired record) | 0.859 | 0.498 | 0.767 |
| GSTO1 | -0.412 | 0.246 | -0.452 |
| HPDL | -0.383 | -0.588 | -1.04 |
| IMP3 | 0.99 | 2.04 | 1.4 |
| LOC286297 | 0.633 | -0.177 | 0.265 |
| C17orf100 | 1.89 | 1.8 | 2.49 |
| DDHD2 | 0.177 | -0.323 | 0.563 |
| LOC440427 (retired record) | 0.215 | -0.0618 | 1.22 |
| ABL1 | 0.692 | 1.19 | 0.0541 |
| CALML3 | -0.67 | -0.448 | -0.319 |
| SIX5 | -0.0533 | 0.246 | 0.127 |
| OR5L2 | 0.905 | 0.92 | 1.04 |
| MISO1 | 0.359 | 0.631 | 0.499 |
| OAZ2 | 0.201 | -0.458 | -0.567 |
| AMPD2 | 0.0526 | -0.382 | -0.000724 |
| LOC401701 (retired record) | -0.153 | -0.797 | -0.359 |
| PCDHB16 | -1.42 | -1.17 | -1.27 |
| PPIF | -0.899 | -0.524 | -0.842 |
| ZNF527 | -1.18 | -1.42 | -1.4 |
| PRKACG | -0.116 | 0.726 | 1.04 |
| CDC42EP2 | -2.56 | -0.572 | -1.28 |
| LOC100133284 | -0.973 | -0.999 | -0.91 |
| TATDN2 | 1.27 | 0.516 | 1.99 |
| SSH2 | -0.537 | -0.879 | -0.356 |
| ABHD1 | 0.0167 | -0.45 | -0.489 |
| FBLN2 | 0.685 | -0.356 | -0.0684 |
| ABCD3 | -1.08 | -0.859 | -1.69 |
| POMGNT1 | -1.47 | -1.07 | -0.976 |
| SLC45A1 | -1.16 | -1.11 | -1.5 |
| AP1B1 | -0.0707 | 0.114 | -0.31 |
| MALL | 0.335 | 1.05 | 0.932 |
| CAND2 | -1.11 | -1.06 | -0.823 |
| DNALI1 | 0.985 | 1.44 | 0.679 |
| INHBE | -0.676 | -0.51 | -0.342 |
| FZD5 | -0.702 | -1.15 | -0.38 |
